US9187526B2, “Peptide based inhibition of caPCNA interaction in cancer” (priority 2006, dated 2015)
At least one peptide structure holds a part that was inferred or is arguable (an end, a ring closure or a residue). Where no end group is shown, it is not given here.

Assays:
[1] = test system: U937 leukemia cells; test: Cytotoxicity in U937 leukemia cell cultures, liposome-mediated peptide transfer, flow cytometry with propidium iodide and annexin V; assay type: cell-based
From the text: Peptide fragments derived from the protein Proliferating Cell Nuclear Antigen (PCNA) are identified herein that have the ability to act, in conjunction with DNA damaging agents (e.g., doxorubicin), to enhance the therapeutic effects of such agents to treat a variety of cancer cells. The peptides are derived from the amino acid sequence within PCNA, for example, encompassing amino acids 126-133. This sequence appears to be uniquely exposed in cancer cells, but not non-cancer cells. By preventing PCNA-binding proteins, including XPG, from binding directly to caPCNA in cancer cells the effects of chemotherapeutic drugs including DNA damaging agents are enhanced. […] Exponentially growing U937 leukemia cell cultures in tissue culture media were used. A liposome mediated protein transfer technique was used wherein the caPCNA peptide (126-133) and doxorubicin were encapsulated in liposomes and added to the cell cultures at 10 μM. […]
As a positive control, these leukemia cells were also incubated for several hours (either 4 or 24 hours) with a peptide derived from the p21waf protein, and as a negative control, a peptide derived from the yeast myosin protein. […] Cell killing vs. cell damage was assessed by flow cytometry using propidium iodide and annexin V staining.

[2] = test system: caPCNA binding to caPCNA antibody (caPCNAab); test: Competition ELISA: caPCNA captured by plate-bound caPCNA antibody (caPCNAab), detected with C20 antibody; parameters: species or system human; conditions: increasing amounts of peptide incubated simultaneously with purified caPCNA
Experimental: The wells are washed and then incubated with a goat anti-PCNA antibody (C20) that recognizes the C-terminal 20 amino acids of PCNA. Bound C20 antibody is visualized with an alkaline phosphatase conjugated anti-goat IgG antibody, and bound antibody complex is visualized with […], and quantified by spectrophotometry. The competition experiments shown in this study involve the simultaneous incubation of the ca(cs)PCNA with increasing amounts of the antigenic peptide fragment of caPCNA (referred to as B1 or the PCNA aa126-133 peptide) in this assay.
The assay described in FIG. 5 was used to test the specificity of the antibody combining site for the epitope defined by PCNA aa126-133 (FIG. 6). The ELISA assay was performed as described in aim 1, however, either the B1 peptide or a peptide sequence (H-Ser-Ala-Cys-Glu-Gln-IIe-Leu-Lys-Asp-Thr-OH) (SEQ ID NO: 28) taken from within the yeast myosin protein was used to compete for the antibody in the presence of purified caPCNA.
The ELISA described herein was used to monitor the ability of two peptides to disrupt caPCNA binding to the bound caPCNA antibody. One peptide (H-[…]OH) (SEQ ID NO: 29) corresponding to the p21cip/waf1 proteins site of interaction with PCNA was evaluated in this assay, and is shown to have no effect on the binding of caPCNA to the bound caPCNA antibody in this ELISA assay (FIG. 7). […]

[3] = test system: cancer cells; test: Incubation of RYIRS-tagged caPCNA-derived peptide with cancer cells in vitro (DMSO or liposome uptake); assay type: cell-based; conditions: 0.2-2% DMSO without serum or liposome formulation, about 4-24 hours
Experimental: The peptides disclosed herein are synthesized using standard peptide synthesis procedures and equipments or can be obtained commercially (e.g., United Biochemical Research Co., Seattle, Wash.). […] Uptake of this peptide was initiated by incubation of this peptide with the cancer cells in the presence of dimethyl sulfoxide (DMSO) in either phosphate buffered saline (PBS) or culture media containing 0.2-2% DMSO, without serum for about 4-24 hours. Uptake of this peptide was also efficiently mediated by encapsulation of the peptide in a liposome formulation and subsequent incubation with the cancer cells at 37° C. for about 4-24 hours.

Sequence | killing of the cultured cells ([1]; U937 cells, peptide and doxorubicin encapsulated in liposomes, 10 μM, within 24 hours) | cell kill ([1]; U937 leukemia cells, absence of doxorubicin, incubation 4 or 24 hours) | competition with caPCNA for binding to the caPCNA antibody ([2]; listed as B1) | competition with caPCNA for binding to the caPCNA antibody ([2]; listed as B1 peptide) | inhibition of cancer cells [3]
LGIPEQEY [caPCNA peptide (126-133), LGIPEQEY] | > 50% | approximately 20% | Reduction in binding of the caPCNA whole molecule | efficiently competes | –
LGIPEQEYRYIRS [caPCNA-derived peptide (LGIPEQEY)(RYIRS)] | – | – | – | – | selectively inhibits cancer cells in vitro
